Source: the supplement of paper PMC10849652
The list shows a part of the results.

Amino acid sequences for entries named in this document (tags omitted). A change or cut given only in a name is not applied to a line headed by its entry.
UniProt O75347: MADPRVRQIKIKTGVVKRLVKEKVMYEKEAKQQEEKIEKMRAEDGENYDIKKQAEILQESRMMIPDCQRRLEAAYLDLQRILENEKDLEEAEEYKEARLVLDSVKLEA
UniProt Q9UBB9: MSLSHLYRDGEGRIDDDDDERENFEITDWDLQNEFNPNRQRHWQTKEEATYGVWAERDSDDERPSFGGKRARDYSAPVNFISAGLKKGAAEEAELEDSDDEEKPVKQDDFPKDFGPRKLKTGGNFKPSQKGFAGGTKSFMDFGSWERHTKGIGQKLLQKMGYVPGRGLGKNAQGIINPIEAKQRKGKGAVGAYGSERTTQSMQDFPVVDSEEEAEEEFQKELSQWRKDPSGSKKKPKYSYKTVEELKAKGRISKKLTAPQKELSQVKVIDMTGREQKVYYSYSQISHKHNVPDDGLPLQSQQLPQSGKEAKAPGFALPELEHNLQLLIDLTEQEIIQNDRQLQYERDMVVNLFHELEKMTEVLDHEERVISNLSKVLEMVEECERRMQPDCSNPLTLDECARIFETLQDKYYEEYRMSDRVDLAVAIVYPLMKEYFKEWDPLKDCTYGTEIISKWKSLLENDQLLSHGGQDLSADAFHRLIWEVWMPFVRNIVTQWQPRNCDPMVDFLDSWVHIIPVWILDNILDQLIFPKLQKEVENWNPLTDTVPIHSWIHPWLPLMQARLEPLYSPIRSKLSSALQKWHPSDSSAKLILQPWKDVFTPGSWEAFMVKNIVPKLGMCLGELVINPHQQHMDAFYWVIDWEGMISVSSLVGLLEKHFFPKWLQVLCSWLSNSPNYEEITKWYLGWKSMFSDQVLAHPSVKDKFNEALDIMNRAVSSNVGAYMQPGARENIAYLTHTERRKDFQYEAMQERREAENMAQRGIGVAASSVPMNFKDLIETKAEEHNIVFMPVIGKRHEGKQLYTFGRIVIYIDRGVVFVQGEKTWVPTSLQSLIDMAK
UniProt P02786, whole entry, looked up: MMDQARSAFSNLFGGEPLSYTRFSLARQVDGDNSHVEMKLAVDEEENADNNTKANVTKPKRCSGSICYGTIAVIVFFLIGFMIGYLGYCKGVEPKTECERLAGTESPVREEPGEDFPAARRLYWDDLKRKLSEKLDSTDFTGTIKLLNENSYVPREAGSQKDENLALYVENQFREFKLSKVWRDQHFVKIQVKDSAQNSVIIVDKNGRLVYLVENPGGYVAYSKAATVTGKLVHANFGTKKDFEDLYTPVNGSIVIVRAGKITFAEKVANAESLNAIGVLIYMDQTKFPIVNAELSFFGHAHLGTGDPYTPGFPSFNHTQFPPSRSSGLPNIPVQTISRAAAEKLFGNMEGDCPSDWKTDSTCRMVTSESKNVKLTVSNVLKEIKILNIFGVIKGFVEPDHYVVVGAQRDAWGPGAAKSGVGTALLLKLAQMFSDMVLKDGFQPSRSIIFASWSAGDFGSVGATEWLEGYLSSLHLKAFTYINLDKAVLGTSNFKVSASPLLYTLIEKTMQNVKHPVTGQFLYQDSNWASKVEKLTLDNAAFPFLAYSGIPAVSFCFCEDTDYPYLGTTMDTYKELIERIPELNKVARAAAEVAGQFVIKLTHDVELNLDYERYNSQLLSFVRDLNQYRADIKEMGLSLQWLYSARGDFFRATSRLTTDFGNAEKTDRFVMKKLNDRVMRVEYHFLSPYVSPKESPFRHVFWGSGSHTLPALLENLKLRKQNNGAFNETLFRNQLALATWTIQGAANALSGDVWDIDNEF
UniProt Q15814: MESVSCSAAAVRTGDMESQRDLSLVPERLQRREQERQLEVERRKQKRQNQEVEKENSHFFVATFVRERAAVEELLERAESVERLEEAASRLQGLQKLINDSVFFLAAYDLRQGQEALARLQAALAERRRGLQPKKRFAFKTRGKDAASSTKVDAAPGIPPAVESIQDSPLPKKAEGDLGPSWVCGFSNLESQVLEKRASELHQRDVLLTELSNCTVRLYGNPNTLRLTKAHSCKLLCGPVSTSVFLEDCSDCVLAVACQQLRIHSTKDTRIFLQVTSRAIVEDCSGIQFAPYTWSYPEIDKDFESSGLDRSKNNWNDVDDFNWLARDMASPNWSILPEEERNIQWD
UniProt Q00059: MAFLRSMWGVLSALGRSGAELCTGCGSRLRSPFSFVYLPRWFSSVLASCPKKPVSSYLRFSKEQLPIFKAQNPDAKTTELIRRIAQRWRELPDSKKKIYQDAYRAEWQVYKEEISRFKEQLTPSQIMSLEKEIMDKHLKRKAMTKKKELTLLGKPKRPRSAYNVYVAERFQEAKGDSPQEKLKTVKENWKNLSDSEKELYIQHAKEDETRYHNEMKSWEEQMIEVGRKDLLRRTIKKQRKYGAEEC
UniProt P15923: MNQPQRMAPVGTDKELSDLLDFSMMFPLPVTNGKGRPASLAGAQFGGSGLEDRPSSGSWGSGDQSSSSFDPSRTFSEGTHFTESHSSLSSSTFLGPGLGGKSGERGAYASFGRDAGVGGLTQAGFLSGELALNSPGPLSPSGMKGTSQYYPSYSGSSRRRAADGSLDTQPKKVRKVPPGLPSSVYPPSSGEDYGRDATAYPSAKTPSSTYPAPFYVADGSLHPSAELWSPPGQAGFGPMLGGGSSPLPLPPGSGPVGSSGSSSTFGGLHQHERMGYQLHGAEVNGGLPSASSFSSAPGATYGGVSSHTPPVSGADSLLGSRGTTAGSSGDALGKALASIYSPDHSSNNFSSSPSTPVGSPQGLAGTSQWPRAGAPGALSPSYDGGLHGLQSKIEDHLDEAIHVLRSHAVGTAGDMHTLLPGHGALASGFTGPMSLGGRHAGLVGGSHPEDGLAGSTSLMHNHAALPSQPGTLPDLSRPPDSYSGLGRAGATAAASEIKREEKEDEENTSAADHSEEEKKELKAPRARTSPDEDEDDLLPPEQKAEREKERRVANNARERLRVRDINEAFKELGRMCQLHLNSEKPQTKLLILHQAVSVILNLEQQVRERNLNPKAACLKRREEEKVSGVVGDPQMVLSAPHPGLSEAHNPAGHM
UniProt Q9BYX2: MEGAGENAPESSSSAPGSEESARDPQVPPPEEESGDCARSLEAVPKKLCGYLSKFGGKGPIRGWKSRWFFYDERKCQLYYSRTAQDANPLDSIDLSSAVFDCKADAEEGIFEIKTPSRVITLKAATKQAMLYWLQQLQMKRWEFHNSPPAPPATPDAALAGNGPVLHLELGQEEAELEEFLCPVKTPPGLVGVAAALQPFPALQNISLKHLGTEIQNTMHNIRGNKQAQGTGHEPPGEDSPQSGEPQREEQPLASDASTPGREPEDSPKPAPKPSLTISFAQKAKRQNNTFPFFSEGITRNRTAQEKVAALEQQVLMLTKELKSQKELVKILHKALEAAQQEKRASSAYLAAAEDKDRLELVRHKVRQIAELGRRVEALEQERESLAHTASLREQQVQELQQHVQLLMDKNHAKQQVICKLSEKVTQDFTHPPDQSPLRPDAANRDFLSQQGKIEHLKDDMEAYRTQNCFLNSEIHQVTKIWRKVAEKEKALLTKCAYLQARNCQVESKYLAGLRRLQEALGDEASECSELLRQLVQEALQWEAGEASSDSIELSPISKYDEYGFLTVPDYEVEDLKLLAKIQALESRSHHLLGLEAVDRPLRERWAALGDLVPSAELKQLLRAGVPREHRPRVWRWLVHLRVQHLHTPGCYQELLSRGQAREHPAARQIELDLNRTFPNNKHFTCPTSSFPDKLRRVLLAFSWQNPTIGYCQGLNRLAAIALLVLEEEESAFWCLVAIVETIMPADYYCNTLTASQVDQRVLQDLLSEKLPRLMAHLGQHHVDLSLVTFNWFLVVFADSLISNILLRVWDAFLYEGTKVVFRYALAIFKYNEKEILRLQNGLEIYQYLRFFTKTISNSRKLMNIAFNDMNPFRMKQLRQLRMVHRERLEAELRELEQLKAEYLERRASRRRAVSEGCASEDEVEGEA
UniProt Q12800: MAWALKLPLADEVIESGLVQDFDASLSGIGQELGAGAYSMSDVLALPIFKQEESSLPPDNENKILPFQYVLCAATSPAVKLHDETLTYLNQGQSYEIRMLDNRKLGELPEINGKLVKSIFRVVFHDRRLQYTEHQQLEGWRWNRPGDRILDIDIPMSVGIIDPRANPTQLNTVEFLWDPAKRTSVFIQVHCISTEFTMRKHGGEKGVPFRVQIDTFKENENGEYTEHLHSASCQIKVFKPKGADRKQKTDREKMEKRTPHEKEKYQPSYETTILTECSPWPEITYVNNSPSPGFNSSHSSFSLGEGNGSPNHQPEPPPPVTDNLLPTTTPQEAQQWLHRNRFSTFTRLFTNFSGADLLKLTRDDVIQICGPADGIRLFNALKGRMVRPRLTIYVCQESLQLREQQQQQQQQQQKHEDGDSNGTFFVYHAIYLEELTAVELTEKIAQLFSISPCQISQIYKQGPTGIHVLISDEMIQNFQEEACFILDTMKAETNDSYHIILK
UniProt P37802: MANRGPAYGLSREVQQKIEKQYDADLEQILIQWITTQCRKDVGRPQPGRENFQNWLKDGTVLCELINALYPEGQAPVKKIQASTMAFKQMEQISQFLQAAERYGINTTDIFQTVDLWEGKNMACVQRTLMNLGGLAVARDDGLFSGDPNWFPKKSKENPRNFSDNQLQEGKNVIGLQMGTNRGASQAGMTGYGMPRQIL
UniProt Q9NVG8: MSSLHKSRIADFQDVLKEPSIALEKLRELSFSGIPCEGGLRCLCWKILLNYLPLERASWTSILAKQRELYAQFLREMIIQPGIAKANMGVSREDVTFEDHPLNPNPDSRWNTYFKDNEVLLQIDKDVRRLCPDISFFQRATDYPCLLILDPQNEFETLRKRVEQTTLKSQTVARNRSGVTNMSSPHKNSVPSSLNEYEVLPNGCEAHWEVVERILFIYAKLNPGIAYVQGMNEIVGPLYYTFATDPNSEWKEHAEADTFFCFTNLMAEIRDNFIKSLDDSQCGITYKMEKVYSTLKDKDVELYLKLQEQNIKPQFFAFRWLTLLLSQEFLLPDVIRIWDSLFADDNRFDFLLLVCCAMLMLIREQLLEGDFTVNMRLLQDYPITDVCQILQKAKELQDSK
UniProt Q9P2M4: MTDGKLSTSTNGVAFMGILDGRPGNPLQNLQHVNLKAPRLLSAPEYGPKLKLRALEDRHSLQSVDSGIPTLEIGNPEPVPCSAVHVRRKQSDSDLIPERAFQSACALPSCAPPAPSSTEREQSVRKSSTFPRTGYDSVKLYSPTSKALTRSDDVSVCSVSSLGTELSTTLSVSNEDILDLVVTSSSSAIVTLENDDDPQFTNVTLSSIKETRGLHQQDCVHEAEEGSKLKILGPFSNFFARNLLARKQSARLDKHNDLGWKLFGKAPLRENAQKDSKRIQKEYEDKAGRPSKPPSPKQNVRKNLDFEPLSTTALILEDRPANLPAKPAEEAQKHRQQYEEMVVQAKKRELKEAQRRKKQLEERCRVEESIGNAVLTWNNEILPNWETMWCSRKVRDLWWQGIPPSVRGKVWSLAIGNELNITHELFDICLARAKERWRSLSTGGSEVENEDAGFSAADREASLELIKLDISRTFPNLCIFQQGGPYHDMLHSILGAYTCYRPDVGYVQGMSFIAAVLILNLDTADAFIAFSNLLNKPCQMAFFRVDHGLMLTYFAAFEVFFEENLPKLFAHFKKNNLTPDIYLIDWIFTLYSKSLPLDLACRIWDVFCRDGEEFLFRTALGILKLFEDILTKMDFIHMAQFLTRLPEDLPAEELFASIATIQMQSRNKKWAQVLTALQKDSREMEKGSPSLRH
UniProt Q4KMP7: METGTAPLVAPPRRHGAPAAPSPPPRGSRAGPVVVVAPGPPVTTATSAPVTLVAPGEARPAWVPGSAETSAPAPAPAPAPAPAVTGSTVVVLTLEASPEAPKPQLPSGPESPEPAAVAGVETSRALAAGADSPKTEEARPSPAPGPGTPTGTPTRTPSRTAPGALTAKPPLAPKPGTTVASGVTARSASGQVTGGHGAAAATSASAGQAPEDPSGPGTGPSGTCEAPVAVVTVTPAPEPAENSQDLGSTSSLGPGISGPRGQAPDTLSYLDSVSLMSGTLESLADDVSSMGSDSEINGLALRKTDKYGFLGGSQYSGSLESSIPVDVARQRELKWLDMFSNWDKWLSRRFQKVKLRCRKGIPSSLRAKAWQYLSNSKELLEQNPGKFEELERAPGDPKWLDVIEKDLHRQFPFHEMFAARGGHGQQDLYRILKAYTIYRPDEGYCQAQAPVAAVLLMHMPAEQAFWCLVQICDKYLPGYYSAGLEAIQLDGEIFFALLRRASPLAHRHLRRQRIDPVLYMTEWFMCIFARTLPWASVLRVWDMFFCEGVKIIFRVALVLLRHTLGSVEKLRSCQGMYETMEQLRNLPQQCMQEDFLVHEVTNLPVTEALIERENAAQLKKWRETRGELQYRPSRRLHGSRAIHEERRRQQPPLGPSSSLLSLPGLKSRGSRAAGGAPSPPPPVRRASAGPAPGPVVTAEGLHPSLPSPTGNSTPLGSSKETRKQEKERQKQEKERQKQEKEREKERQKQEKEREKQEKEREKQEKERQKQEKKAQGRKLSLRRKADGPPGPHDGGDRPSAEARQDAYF

What was measured:
Test in all cases: log2 fold change, soluble protein after heating vs DMSO (PISA); higher = thermal stabilisation; K562 lysate, 10 uM; active = over 0.2 and 3.5 SD of the protein, either way, in both replicates (recomputed)
alvocidib = compound: CN1CC[C@H](c2c(O)cc(O)c3c(=O)cc(-c4ccccc4Cl)oc23)[C@H](O)C1 [alvocidib]
Outline: (§1)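 Values give the log-two fold change in thermal stability against solvent controls, from duplicates. Crude K562 extract at 1 mg/mL protein, made by dounce homogenisation in PBS pH 7.4 with 1 mM MgCl2, was treated with 10 μM compound for 30 min. After 3 min heating across 48°C-58°C, aliquots were pooled, adjusted to 0.5% NP-40 at 4°C and centrifuged at 21,000xg for 90 min. The supernatant was measured by TMTpro 16plex LC-MS/MS with channel sums equalised.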

Tubastatin A = compound: CN1CCc2c(c3ccccc3n2Cc2ccc(C(=O)NO)cc2)C1 [Tubastatin A]
Outline: as §1

[1] = compound: CNC(=O)C1=CC=CC=C1NC2=NC(=NC=C2Cl)NC3=C(C=C(C=C3)N4CCOCC4)OC
Outline: as §1

defactinib = compound: CNC(=O)c1ccc(Nc2ncc(C(F)(F)F)c(NCc3nccnc3N(C)S(C)(=O)=O)n2)cc1 [defactinib]
Outline: as §1

[2] = compound: CNc1nc(-c2ccc3c(N)n[nH]c3c2)cc(N2C[C@@H](C(=O)NC3CCCCC3)CC[C@H]2C)n1
Outline: as §1

encorafenib = compound: COC(=O)N[C@@H](C)CNc1nccc(-c2cn(C(C)C)nc2-c2cc(Cl)cc(NS(C)(=O)=O)c2F)n1 [encorafenib]
Outline: as §1

[3] = compound: COC(=O)[C@H](CCSC)NC(=O)C1=C(C=C(C=C1)NC[C@H](CS)N)C2=CC=CC=C2
Outline: as §1

alisertib = compound: COc1cc(Nc2ncc3c(n2)-c2ccc(Cl)cc2C(c2c(F)cccc2OC)=NC3)ccc1C(=O)O [alisertib]
Outline: as §1

[4] = compound: COc1cc2nc(-c3cc(F)ccc3O)nc(N[C@@H]3CNC[C@H]3C(C)(C)O)c2cc1OC
Outline: as §1

gefitinib = compound: COc1cc2ncnc(Nc3ccc(F)c(Cl)c3)c2cc1OCCCN1CCOCC1 [gefitinib]
Outline: as §1

lapatinib = compound: CS(=O)(=O)CCNCc1ccc(-c2ccc3ncnc(Nc4ccc(OCc5cccc(F)c5)c(Cl)c4)c3c2)o1 [lapatinib]
Outline: as §1

pictilisib = compound: CS(=O)(=O)N1CCN(Cc2cc3nc(-c4cccc5[nH]ncc45)nc(N4CCOCC4)c3s2)CC1 [pictilisib]
Outline: as §1

crizotinib = compound: C[C@@H](Oc1cc(-c2cnn(C3CCNCC3)c2)cnc1N)c1c(Cl)ccc(F)c1Cl [crizotinib]
Outline: as §1

[5] = compound: C[C@H](C1=CC=C(C=C1)C(=O)NC2=C3C=CNC3=NC=C2)N
Outline: as §1

duvelisib = compound: C[C@H](Nc1ncnc2nc[nH]c12)c1cc2cccc(Cl)c2c(=O)n1-c1ccccc1 [duvelisib]
Outline: as §1

gandotinib = compound: Cc1cc(Nc2cc(CN3CCOCC3)c3nc(C)c(Cc4ccc(Cl)cc4F)n3n2)n[nH]1 [gandotinib]
Outline: as §1

tozasertib = compound: Cc1cc(Nc2cc(N3CCN(C)CC3)nc(Sc3ccc(NC(=O)C4CC4)cc3)n2)n[nH]1 [tozasertib]
Outline: as §1

doramapimod = compound: Cc1ccc(-n2nc(C(C)(C)C)cc2NC(=O)Nc2ccc(OCCN3CCOCC3)c3ccccc23)cc1 [doramapimod]
Outline: as §1

bafetinib = compound: Cc1ccc(NC(=O)c2ccc(CN3CC[C@H](N(C)C)C3)c(C(F)(F)F)c2)cc1Nc1nccc(-c2cncnc2)n1 [bafetinib]
Outline: as §1

[6] = compound: Cc1cccc(CC(=O)N2CCc3c2ccc(-c2cn(C)c4ncnc(N)c24)c3F)n1
Outline: as §1

Measured: log2 fold change

TBCA (UniProt O75347)
inactive: alvocidib 0.014 | Tubastatin A 0.016 | [1] -0.093 | defactinib -0.017 | [2] -0.024 | encorafenib -0.033 | [3] -0.048 | alisertib -0.01 | [4] -0.002 | gefitinib -0.021 | lapatinib 0.014 | pictilisib 0.039 | crizotinib 0.021 | [5] -0.027 | duvelisib 0.012 | gandotinib -0.011 | tozasertib 0.041 | doramapimod 0.031 | bafetinib 0.045 | [6] -0.028

TFIP11 (UniProt Q9UBB9)
inactive: alvocidib -0.013 | Tubastatin A -0.135 | [1] 0.024 | defactinib 0.061 | [2] -0.023 | encorafenib 0.042 | alisertib 0.062 | [4] 0.013 | gefitinib -0.041 | lapatinib -0.032 | pictilisib 0.061 | crizotinib -0.085 | [5] -0.031 | duvelisib -0.053 | gandotinib -0.097 | tozasertib 0.051 | doramapimod 0.043 | bafetinib -0.114 | [6] 0.06
active: [3] 0.381

TEX2 isoform 2 (UniProt Q8IWB9)
inactive: alvocidib 0.038 | Tubastatin A 0.036 | [1] -0.052 | defactinib -0.042 | [2] 0.059 | encorafenib -0.045 | [3] 0.04 | alisertib -0.03 | [4] 0.088 | gefitinib 0.039 | lapatinib -0.009 | pictilisib -0.015 | crizotinib 0.034 | [5] 0.2 | duvelisib 0.066 | gandotinib -0.209 | tozasertib 0.076 | doramapimod 0.055 | bafetinib -0.156 | [6] -0.085

TFRC (UniProt P02786)
inactive: alvocidib 0.012 | Tubastatin A 0.022 | [1] 0.009 | defactinib -0.01 | [2] 0.01 | encorafenib -0.001 | [3] -0.017 | alisertib 0.008 | [4] 0.013 | gefitinib 0.017 | lapatinib -0.023 | pictilisib -0.005 | crizotinib 0.026 | [5] -0.015 | duvelisib 0.005 | gandotinib 0.019 | tozasertib -0.006 | doramapimod -0.003 | bafetinib -0.022 | [6] -0.002

TBCC (UniProt Q15814)
inactive: alvocidib -0.02 | Tubastatin A 0.032 | [1] 0.012 | defactinib 0 | [2] -0.016 | encorafenib 0.009 | [3] -0.016 | alisertib -0.032 | [4] 0.01 | gefitinib 0.023 | lapatinib -0.009 | pictilisib -0.059 | crizotinib 0.003 | [5] -0.03 | duvelisib 0 | gandotinib 0.024 | tozasertib 0.013 | doramapimod 0.046 | bafetinib 0.035 | [6] -0.003

TFAM (UniProt Q00059)
inactive: alvocidib 0.015 | Tubastatin A 0.015 | [1] -0.018 | defactinib -0.01 | [2] 0.023 | encorafenib -0.011 | [3] -0.031 | alisertib -0.001 | [4] -0.024 | gefitinib 0.014 | lapatinib -0.004 | pictilisib -0.001 | crizotinib 0.045 | [5] 0.015 | duvelisib -0.014 | gandotinib -0.064 | tozasertib 0.011 | doramapimod -0.024 | bafetinib -0.02 | [6] -0.064

TCEA1 (UniProt P23193)
inactive: alvocidib 0.016 | Tubastatin A 0.029 | [1] -0.007 | defactinib -0.023 | [2] -0.002 | encorafenib 0.031 | [3] -0.034 | alisertib -0.055 | [4] -0.001 | gefitinib -0.027 | lapatinib 0.022 | pictilisib 0.008 | crizotinib 0.056 | [5] 0.136 | duvelisib 0.024 | gandotinib -0.052 | tozasertib 0.028 | doramapimod -0.002 | bafetinib 0.09 | [6] -0.128

2 successive entries out of the list so far, for reference:
TBCA (UniProt O75347)
inactive: alvocidib 0.014 | Tubastatin A 0.016 | [1] -0.093 | defactinib -0.017 | [2] -0.024 | encorafenib -0.033 | [3] -0.048 | alisertib -0.01 | [4] -0.002 | gefitinib -0.021 | lapatinib 0.014 | pictilisib 0.039 | crizotinib 0.021 | [5] -0.027 | duvelisib 0.012 | gandotinib -0.011 | tozasertib 0.041 | doramapimod 0.031 | bafetinib 0.045 | [6] -0.028

TFIP11 (UniProt Q9UBB9)
inactive: alvocidib -0.013 | Tubastatin A -0.135 | [1] 0.024 | defactinib 0.061 | [2] -0.023 | encorafenib 0.042 | alisertib 0.062 | [4] 0.013 | gefitinib -0.041 | lapatinib -0.032 | pictilisib 0.061 | crizotinib -0.085 | [5] -0.031 | duvelisib -0.053 | gandotinib -0.097 | tozasertib 0.051 | doramapimod 0.043 | bafetinib -0.114 | [6] 0.06
active: [3] 0.381

More results.

TCF3 (UniProt P15923)
inactive: alvocidib -0.039 | Tubastatin A -0.066 | [1] 0.034 | defactinib 0.089 | [2] 0.19 | encorafenib 0.135 | [3] -0.051 | alisertib 0.047 | [4] 0.027 | gefitinib 0.023 | lapatinib 0.014 | pictilisib 0.014 | crizotinib 0.066 | [5] -0.042 | gandotinib 0.053 | tozasertib -0.013 | doramapimod -0.031 | bafetinib -0.036 | [6] -0.032
active: duvelisib 0.22

TBC1D2 (UniProt Q9BYX2)
inactive: alvocidib 0.012 | Tubastatin A -0.085 | [1] -0.034 | defactinib 0.133 | [2] 0.014 | encorafenib -0.057 | [3] 0.106 | alisertib 0.023 | [4] 0.072 | gefitinib -0.018 | lapatinib -0.046 | pictilisib -0.031 | crizotinib -0.075 | [5] 0.018 | duvelisib -0.016 | gandotinib 0.051 | tozasertib -0.043 | doramapimod 0.07 | bafetinib 0.12 | [6] 0.022

TARBP2 (UniProt Q15633)
inactive: alvocidib 0.016 | Tubastatin A -0.147 | [1] 0.038 | defactinib 0.017 | [2] -0.026 | encorafenib 0.037 | [3] 0.072 | alisertib -0.039 | [4] 0.008 | gefitinib -0.01 | lapatinib 0.035 | pictilisib -0.098 | crizotinib -0.092 | [5] 0.001 | duvelisib 0.07 | gandotinib -0.08 | tozasertib -0.057 | doramapimod 0.028 | bafetinib -0.028 | [6] 0.022

TFCP2 (UniProt Q12800)
inactive: alvocidib 0.015 | Tubastatin A -0.215 | [1] 0.169 | defactinib 0.003 | [2] 0.009 | encorafenib 0.093 | [3] 0.044 | alisertib 0.019 | [4] -0.049 | gefitinib -0.033 | lapatinib 0.043 | pictilisib 0.083 | crizotinib -0.093 | [5] 0 | duvelisib -0.016 | gandotinib 0.098 | tozasertib 0.021 | doramapimod 0.168 | bafetinib -0.075 | [6] 0.004

TAGLN2 isoform 2 (UniProt P37802)
inactive: alvocidib 0.012 | Tubastatin A 0.027 | [1] 0.006 | defactinib 0.024 | [2] 0.004 | encorafenib -0.015 | [3] -0.112 | alisertib -0.008 | [4] -0.005 | gefitinib -0.032 | lapatinib 0.013 | pictilisib -0.022 | crizotinib 0.009 | [5] 0.058 | duvelisib 0.017 | gandotinib -0.001 | tozasertib 0.027 | doramapimod -0.004 | bafetinib 0.024 | [6] -0.025

TBC1D15 isoform 3 (UniProt Q8TC07)
inactive: alvocidib 0.029 | Tubastatin A -0.054 | [1] 0.016 | defactinib 0.002 | [2] -0.004 | encorafenib -0.017 | [3] 0.021 | alisertib 0.009 | [4] -0.005 | gefitinib 0.003 | lapatinib 0.01 | pictilisib -0.003 | crizotinib -0.079 | [5] 0.053 | duvelisib -0.019 | gandotinib -0.043 | tozasertib -0.006 | doramapimod 0 | bafetinib -0.038 | [6] -0.012

TBC1D13 (UniProt Q9NVG8)
inactive: alvocidib -0.001 | Tubastatin A -0.006 | [1] 0.001 | defactinib 0 | [2] 0.023 | encorafenib 0.001 | [3] -0.018 | alisertib 0.015 | [4] 0.014 | gefitinib 0.046 | lapatinib -0.025 | pictilisib -0.005 | crizotinib 0.027 | [5] -0.076 | duvelisib 0.023 | gandotinib 0.034 | tozasertib -0.001 | doramapimod 0.007 | bafetinib -0.018 | [6] 0.03

TBC1D14 (UniProt Q9P2M4)
inactive: alvocidib -0.033 | Tubastatin A -0.144 | [1] 0.072 | defactinib 0.132 | [2] 0.03 | encorafenib 0.156 | [3] 0.076 | alisertib -0.023 | [4] -0.086 | gefitinib 0.065 | lapatinib 0.081 | pictilisib -0.042 | crizotinib -0.007 | [5] -0.072 | duvelisib -0.063 | gandotinib -0.021 | tozasertib 0.052 | doramapimod 0.069 | bafetinib 0.012 | [6] 0.119

TBC1D10B (UniProt Q4KMP7)
inactive: alvocidib -0.009 | Tubastatin A 0.067 | [1] 0.026 | defactinib 0.071 | [2] -0.047 | encorafenib 0.014 | [3] -0.147 | alisertib -0.003 | [4] -0.013 | gefitinib 0.023 | lapatinib 0.029 | pictilisib -0.048 | crizotinib -0.01 | [5] -0.005 | duvelisib 0.013 | gandotinib -0.01 | tozasertib -0.066 | doramapimod -0.027 | bafetinib 0.021 | [6] 0.039
